# Laboratory results as given in the supplement of paper PMC8728848.
# The other results are listed elsewhere or left out.
# Columns and labels:
# Assay in all cases: glycan array binding signal (z-score within array); higher = stronger binding
# Details in all cases: glycan notation: IUPAC condensed, linker removed
# [1] = molecular target: Gal(b1-4)GlcNAc(b1-3)Gal(b1-4)GlcNAc(b1-6)[Gal(b1-3)]GalNAc
# In short: (§1)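 From the Consortium for Functional Glycomics database, 3228 arrays were curated, keeping only those whose protein sequence was available. Binding is given as a within-array Z-score averaged across arrays sharing a protein sequence and across linkers. Negative Z-scores can be read as non-binding.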
# [2] = molecular target: Gal(b1-4)GlcNAc(b1-3)Gal(b1-4)[Fuc(a1-3)]GlcNAc(b1-3)Gal(b1-4)[Fuc(a1-3)]GlcNAc
# In short: as §1
# [3] = molecular target: Gal(b1-4)GlcNAc(b1-3)GalNAc
# In short: as §1
# [4] = molecular target: Gal(b1-4)GlcNAc(b1-3)[Fuc(a1-3)GlcNAc(b1-6)]Gal(b1-4)Glc
# In short: as §1
# [5] = molecular target: Gal(b1-4)GlcNAc(b1-3)[Gal(b1-4)GlcNAc(b1-6)]Gal(b1-4)GlcNAc
# In short: as §1
# [6] = molecular target: Gal(b1-4)GlcNAc(b1-3)[GlcNAc(b1-6)]Gal(b1-4)GlcNAc
# In short: as §1
# [7] = molecular target: Gal(b1-4)GlcNAc(b1-6)Gal(b1-4)GlcNAc
# In short: as §1
# [8] = molecular target: Gal(b1-4)GlcNAc(b1-6)GalNAc
# In short: as §1
# [9] = molecular target: Gal(b1-4)GlcNAc(b1-6)[Gal(b1-3)]GalNAc
# In short: as §1
# [10] = molecular target: Gal(b1-4)GlcNAc(b1-6)[Gal(b1-4)GlcNAc(b1-3)]GalNAc
# In short: as §1
# [11] = molecular target: Gal(b1-4)GlcNAc6P
# In short: as §1
# [12] = molecular target: Gal(b1-6)Gal
# In short: as §1
# [13] = molecular target: Gal3S(b1-3)GalNAc
# In short: as §1
# [14] = molecular target: Gal3S(b1-3)GlcNAc
# In short: as §1
# [15] = molecular target: Gal3S(b1-3)[Fuc(a1-4)]GlcNAc
# In short: as §1
# [16] = molecular target: Gal3S(b1-4)Glc
# In short: as §1
# [17] = molecular target: Gal3S(b1-4)Glc6S
# In short: as §1
# [18] = molecular target: Gal3S(b1-4)GlcNAc
# In short: as §1
# [19] = molecular target: Gal3S(b1-4)[Fuc(a1-3)]Glc6S
# In short: as §1
# [20] = molecular target: Gal3S(b1-4)[Fuc(a1-3)]GlcNAc
# In short: as §1
# [21] = molecular target: Gal3S(b1-4)[Fuc(a1-3)]GlcNAc6S
# In short: as §1
# [22] = molecular target: Gal3S4S(b1-4)GlcNAc
# In short: as §1
# [23] = molecular target: Gal3S6S(b1-4)GlcNAc
# In short: as §1
# [24] = molecular target: Gal3S6S(b1-4)GlcNAc6S
# In short: as §1
# [25] = molecular target: Gal4S(b1-4)GlcNAc
# In short: as §1
# [26] = molecular target: Gal4S6S(b1-4)GlcNAc
# In short: as §1
# [27] = molecular target: Gal6P(b1-4)GlcNAc
# In short: as §1
# [28] = molecular target: Gal6S(b1-3)GlcNAc
# In short: as §1
# [29] = molecular target: Gal6S(b1-3)GlcNAc6S
# In short: as §1
# [30] = molecular target: Gal6S(b1-4)Glc
# In short: as §1
# [31] = molecular target: Gal6S(b1-4)Glc6S
# In short: as §1
# [32] = molecular target: Gal6S(b1-4)GlcNAc
# In short: as §1
# [33] = molecular target: Gal6S(b1-4)GlcNAc6S
# In short: as §1
# [34] = molecular target: GalNAc(a1-3)Gal
# In short: as §1
# [35] = molecular target: GalNAc(a1-3)GalNAc
# In short: as §1
# [36] = molecular target: GalNAc(a1-3)GalNAc(a1-3)Gal(a1-4)Gal(b1-4)GlcNAc
# In short: as §1
# [37] = molecular target: GalNAc(a1-3)GalNAc(b1-3)Gal(a1-4)Gal(b1-4)Glc
# In short: as §1
# [38] = molecular target: GalNAc(b1-3)Gal
# In short: as §1
# [39] = molecular target: GalNAc(b1-3)Gal(a1-4)Gal(b1-4)GlcNAc
# In short: as §1
# [40] = molecular target: GalNAc(b1-3)Gal(a1-4)Gal(b1-4)GlcNAc(b1-3)Gal(b1-4)Glc
# In short: as §1
# [41] = molecular target: GalNAc(b1-3)Gal(a1-6)Gal(b1-4)Glc
# In short: as §1
# [42] = molecular target: GalNAc(b1-3)GalNAc
# In short: as §1
# [43] = molecular target: GalNAc(b1-3)GlcNAc
# In short: as §1
# [44] = molecular target: GalNAc(b1-4)Gal(b1-4)Glc
# In short: as §1
# [45] = molecular target: GalNAc(b1-4)GlcNAc
# In short: as §1
binder,measurement,setting,value
"Tp0751, 83732 (protein) MSYYHHHHHHLESTSLYKKAGFQHGHVPPRRIPPHDTFGALPTAALPSNARDTAAHPSDTADNTSGSSTTTDPRSHGNAPPAPVGGAAQTHTQPPVQTAMRIALWNRATHGEQGALQHLLAGLWIQTEISPNSGDIHPLLFFDREHAEITFSRASVQEIFLVDSAHTHRKTVSFLTRNTAISSIRRRLEVTFESHEVIHVRAVEDVARLKIGSTSMWDGQYTRYHAGPASAPSP",glycan array binding signal (z-score),[1],-0.299
same,glycan array binding signal (z-score),[2],-0.33
same,glycan array binding signal (z-score),[3],-0.427
same,glycan array binding signal (z-score),[4],-0.754
same,glycan array binding signal (z-score),[5],-0.425
same,glycan array binding signal (z-score),[6],-0.712
same,glycan array binding signal (z-score),[7],-0.27
same,glycan array binding signal (z-score),[8],0.448
same,glycan array binding signal (z-score),[9],-0.123
same,glycan array binding signal (z-score),[10],0.39
same,glycan array binding signal (z-score),[11],0.109
same,glycan array binding signal (z-score),[12],-0.539
same,glycan array binding signal (z-score),[13],3.13
same,glycan array binding signal (z-score),[14],0.677
same,glycan array binding signal (z-score),[15],0.145
same,glycan array binding signal (z-score),[16],5.83
same,glycan array binding signal (z-score),[17],0.706
same,glycan array binding signal (z-score),[18],-0.267
same,glycan array binding signal (z-score),[19],0.285
same,glycan array binding signal (z-score),[20],-0.325
same,glycan array binding signal (z-score),[21],1.94
same,glycan array binding signal (z-score),[22],0.248
same,glycan array binding signal (z-score),[23],0.257
same,glycan array binding signal (z-score),[24],2.54
same,glycan array binding signal (z-score),[25],-0.171
same,glycan array binding signal (z-score),[26],0.22
same,glycan array binding signal (z-score),[27],-0.407
same,glycan array binding signal (z-score),[28],-0.724
same,glycan array binding signal (z-score),[29],2.18
same,glycan array binding signal (z-score),[30],-0.008
same,glycan array binding signal (z-score),[31],1.12
same,glycan array binding signal (z-score),[32],-0.379
same,glycan array binding signal (z-score),[33],0.444
same,glycan array binding signal (z-score),[34],-0.699
same,glycan array binding signal (z-score),[35],-0.699
same,glycan array binding signal (z-score),[36],-0.38
same,glycan array binding signal (z-score),[37],-0.721
same,glycan array binding signal (z-score),[38],0.362
same,glycan array binding signal (z-score),[39],0.188
same,glycan array binding signal (z-score),[40],-0.654
same,glycan array binding signal (z-score),[41],-0.385
same,glycan array binding signal (z-score),[42],-0.52
same,glycan array binding signal (z-score),[43],0.193
same,glycan array binding signal (z-score),[44],0.173
same,glycan array binding signal (z-score),[45],0.591
